{"sequences": {"note": "By UniProt entry, the sequences of proteins in these tests, tags left out. Where a name states a change or a piece, a line headed by the entry shows the natural chain unless it says otherwise.", "UniProt Q17RS7": "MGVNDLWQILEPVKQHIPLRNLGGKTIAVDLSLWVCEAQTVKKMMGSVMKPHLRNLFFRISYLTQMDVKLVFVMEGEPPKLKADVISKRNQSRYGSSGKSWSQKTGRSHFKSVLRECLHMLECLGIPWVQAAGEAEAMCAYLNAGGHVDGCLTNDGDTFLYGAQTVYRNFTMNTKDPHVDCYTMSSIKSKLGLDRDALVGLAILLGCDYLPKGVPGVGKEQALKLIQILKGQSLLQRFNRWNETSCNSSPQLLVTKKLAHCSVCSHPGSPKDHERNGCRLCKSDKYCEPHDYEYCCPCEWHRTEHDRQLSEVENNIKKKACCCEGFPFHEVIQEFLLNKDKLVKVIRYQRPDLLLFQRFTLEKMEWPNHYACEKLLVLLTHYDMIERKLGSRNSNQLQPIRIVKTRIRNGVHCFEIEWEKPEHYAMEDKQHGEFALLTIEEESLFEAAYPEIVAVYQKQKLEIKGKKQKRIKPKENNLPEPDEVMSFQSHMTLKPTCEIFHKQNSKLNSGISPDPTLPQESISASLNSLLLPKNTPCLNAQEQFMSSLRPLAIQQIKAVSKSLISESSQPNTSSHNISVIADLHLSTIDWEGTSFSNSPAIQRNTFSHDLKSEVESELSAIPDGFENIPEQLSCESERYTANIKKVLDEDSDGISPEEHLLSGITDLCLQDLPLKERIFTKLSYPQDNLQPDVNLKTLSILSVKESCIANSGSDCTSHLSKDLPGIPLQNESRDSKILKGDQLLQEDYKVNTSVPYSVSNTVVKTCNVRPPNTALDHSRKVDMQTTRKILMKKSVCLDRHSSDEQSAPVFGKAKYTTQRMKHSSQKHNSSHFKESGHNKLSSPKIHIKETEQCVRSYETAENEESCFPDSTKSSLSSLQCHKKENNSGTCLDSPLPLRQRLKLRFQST", "UniProt Q56VL3": "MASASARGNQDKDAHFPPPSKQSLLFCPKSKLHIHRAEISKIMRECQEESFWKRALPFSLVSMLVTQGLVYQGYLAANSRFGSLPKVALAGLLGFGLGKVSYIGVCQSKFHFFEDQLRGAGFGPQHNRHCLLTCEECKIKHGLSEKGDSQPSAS", "UniProt Q15648, whole entry, looked up": "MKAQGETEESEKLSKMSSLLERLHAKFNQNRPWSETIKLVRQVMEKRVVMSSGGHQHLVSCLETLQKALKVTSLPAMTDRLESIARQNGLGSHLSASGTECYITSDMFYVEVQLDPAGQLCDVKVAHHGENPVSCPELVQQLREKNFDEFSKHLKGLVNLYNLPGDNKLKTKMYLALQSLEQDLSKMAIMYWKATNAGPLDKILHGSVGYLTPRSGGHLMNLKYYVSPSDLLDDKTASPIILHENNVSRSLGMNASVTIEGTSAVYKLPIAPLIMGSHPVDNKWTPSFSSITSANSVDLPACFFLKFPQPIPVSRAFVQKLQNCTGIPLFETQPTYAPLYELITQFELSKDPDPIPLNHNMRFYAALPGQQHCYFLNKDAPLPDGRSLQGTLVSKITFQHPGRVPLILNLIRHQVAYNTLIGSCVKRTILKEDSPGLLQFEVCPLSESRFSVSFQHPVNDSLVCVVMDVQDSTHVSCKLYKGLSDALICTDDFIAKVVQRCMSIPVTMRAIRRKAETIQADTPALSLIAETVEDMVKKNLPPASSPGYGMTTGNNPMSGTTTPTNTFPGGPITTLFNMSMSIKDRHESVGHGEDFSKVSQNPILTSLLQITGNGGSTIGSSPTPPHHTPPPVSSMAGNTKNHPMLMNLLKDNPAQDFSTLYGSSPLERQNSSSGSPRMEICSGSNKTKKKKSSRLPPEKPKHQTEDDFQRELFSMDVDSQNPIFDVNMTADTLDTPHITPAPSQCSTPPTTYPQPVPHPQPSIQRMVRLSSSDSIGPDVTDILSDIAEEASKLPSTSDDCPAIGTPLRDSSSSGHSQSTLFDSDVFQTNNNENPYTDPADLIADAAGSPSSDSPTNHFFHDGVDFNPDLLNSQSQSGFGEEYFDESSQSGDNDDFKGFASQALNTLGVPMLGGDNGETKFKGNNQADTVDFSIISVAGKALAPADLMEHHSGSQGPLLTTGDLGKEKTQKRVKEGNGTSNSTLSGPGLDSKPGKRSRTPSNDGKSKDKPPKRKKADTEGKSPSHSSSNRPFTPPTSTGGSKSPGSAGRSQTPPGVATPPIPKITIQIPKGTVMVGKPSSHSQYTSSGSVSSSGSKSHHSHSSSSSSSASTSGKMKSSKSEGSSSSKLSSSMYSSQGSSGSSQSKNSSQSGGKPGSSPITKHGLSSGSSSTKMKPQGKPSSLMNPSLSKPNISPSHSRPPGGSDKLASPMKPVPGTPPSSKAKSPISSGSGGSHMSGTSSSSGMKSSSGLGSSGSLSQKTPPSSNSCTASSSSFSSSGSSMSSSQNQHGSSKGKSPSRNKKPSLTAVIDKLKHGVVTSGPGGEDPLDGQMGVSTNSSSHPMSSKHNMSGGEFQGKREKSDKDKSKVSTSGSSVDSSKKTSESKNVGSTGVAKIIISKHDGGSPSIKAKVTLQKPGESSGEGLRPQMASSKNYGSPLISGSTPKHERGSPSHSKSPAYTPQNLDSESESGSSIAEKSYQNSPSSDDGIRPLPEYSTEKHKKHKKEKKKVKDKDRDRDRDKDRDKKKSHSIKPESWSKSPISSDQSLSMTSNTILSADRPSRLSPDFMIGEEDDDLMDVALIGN", "UniProt Q16763": "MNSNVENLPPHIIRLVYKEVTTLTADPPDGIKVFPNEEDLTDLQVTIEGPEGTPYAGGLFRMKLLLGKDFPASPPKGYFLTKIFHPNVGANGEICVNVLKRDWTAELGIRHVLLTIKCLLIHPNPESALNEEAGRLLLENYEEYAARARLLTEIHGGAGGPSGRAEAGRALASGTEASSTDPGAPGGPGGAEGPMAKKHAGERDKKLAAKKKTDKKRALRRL", "UniProt Q3SXM5": "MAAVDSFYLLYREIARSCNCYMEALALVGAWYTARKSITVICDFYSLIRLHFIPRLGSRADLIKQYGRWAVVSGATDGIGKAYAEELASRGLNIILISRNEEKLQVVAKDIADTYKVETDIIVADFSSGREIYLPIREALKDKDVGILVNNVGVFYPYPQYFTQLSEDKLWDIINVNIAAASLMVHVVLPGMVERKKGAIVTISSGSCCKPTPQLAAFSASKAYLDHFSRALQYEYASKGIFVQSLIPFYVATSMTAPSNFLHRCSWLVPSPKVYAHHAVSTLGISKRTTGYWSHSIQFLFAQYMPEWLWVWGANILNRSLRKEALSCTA", "UniProt Q15365, whole entry, looked up": "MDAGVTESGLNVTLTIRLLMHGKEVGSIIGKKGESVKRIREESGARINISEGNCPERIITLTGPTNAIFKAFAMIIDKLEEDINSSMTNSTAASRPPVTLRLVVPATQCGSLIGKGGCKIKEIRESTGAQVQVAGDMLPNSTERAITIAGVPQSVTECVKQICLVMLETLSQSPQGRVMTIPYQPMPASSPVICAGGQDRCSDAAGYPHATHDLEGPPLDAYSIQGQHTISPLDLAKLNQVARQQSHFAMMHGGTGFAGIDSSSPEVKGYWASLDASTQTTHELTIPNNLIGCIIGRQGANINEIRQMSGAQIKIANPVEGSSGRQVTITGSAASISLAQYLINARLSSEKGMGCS", "UniProt Q52LJ0": "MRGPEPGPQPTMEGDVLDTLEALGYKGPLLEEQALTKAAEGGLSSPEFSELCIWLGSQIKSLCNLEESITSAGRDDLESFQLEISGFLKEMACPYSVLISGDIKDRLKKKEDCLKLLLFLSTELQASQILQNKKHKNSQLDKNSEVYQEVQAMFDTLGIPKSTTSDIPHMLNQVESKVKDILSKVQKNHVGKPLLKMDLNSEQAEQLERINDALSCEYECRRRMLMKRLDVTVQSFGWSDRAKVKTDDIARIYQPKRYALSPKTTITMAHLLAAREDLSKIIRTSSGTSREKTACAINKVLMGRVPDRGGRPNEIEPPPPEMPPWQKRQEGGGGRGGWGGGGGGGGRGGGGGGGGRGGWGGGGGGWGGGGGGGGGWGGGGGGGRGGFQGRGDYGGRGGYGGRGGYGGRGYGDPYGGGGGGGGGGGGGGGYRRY", "UniProt Q29RF7": "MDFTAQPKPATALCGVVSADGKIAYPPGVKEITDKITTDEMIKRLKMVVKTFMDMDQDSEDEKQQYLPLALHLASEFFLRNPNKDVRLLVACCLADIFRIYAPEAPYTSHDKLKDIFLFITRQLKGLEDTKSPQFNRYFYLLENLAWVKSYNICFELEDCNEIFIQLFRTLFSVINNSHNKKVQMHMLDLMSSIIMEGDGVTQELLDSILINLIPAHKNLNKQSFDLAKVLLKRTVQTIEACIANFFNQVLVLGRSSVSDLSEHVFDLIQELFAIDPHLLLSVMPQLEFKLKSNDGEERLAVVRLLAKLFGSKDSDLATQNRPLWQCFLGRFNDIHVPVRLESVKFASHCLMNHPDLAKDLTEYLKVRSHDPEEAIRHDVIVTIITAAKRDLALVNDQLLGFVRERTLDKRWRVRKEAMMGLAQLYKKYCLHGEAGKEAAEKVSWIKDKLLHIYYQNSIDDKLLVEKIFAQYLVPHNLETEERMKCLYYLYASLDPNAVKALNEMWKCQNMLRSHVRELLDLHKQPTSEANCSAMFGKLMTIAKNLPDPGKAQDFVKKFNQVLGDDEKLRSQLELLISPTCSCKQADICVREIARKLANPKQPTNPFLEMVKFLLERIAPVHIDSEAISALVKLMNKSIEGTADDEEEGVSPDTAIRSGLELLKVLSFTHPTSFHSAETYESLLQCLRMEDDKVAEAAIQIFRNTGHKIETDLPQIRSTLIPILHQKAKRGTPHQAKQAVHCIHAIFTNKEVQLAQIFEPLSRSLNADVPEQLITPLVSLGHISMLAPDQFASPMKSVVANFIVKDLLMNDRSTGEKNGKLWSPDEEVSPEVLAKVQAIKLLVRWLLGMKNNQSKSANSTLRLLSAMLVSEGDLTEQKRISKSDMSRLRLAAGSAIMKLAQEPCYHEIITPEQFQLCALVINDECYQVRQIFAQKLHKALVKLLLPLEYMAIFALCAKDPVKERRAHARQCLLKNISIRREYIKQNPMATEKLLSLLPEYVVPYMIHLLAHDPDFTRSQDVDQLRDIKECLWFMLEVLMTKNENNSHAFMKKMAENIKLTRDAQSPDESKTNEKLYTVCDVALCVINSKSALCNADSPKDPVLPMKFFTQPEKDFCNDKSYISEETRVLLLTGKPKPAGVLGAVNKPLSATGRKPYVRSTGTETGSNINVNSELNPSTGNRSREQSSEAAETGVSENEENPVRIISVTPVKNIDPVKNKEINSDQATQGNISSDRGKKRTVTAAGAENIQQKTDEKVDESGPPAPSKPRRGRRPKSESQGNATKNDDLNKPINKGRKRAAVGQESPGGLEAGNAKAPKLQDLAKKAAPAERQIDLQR", "UniProt Q15181": "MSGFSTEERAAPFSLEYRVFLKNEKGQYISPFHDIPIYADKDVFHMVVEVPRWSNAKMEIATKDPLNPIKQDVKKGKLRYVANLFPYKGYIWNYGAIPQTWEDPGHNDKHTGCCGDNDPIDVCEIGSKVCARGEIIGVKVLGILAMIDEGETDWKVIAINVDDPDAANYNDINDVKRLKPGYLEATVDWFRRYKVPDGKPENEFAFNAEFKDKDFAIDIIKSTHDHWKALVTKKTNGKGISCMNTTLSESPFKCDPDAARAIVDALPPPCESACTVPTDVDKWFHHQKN", "UniProt Q15276": "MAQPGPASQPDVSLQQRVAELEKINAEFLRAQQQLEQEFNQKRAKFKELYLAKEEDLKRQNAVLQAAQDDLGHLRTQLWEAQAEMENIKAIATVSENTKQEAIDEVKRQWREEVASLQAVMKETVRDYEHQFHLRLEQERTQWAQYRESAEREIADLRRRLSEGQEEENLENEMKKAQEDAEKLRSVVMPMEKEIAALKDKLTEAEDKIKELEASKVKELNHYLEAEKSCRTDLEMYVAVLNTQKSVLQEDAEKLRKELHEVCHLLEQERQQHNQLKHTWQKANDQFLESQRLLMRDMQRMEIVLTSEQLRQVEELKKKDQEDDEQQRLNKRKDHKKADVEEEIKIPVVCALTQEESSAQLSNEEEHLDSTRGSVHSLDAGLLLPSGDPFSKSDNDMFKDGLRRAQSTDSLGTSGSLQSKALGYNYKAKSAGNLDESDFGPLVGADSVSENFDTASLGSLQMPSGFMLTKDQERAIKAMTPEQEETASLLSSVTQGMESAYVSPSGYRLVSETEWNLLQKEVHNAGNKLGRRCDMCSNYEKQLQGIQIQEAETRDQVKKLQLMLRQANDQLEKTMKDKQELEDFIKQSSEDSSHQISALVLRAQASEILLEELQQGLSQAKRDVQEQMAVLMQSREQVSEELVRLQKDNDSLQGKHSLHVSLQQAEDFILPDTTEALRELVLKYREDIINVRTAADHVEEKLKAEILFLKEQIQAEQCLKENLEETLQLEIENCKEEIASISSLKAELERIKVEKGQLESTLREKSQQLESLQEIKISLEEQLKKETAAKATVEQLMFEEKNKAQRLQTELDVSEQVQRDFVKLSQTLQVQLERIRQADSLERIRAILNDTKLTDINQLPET"}, "source": "the supplement of paper PMC11006884", "note": "Only a part is listed here, and it is no random draw.", "data": [{"compound": "COC(=O)C#Cc1ccccc1 [methyl 3-phenylpropiolate]", "experiment": "log2 ratio of iodoacetamide-alkyne labeling of the cysteine site, DMSO over compound (competition); higher = stronger covalent engagement of the cysteine by the compound, active = 1 or more", "conditions": "500 µM; treatment time 1 h; system: HEK293T cell lysate", "how_it_was_run": "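Electrophile (500 µM) or vehicle was added to HEK293T lysate (2 mg/mL) for 1 h at ambient temperature before iodoacetamide alkyne labelling (1 h) and click coupling to sCIP-TMT reagents. After pooling, overnight trypsin digestion at 37 °C, streptavidin enrichment and acid elution, peptides were measured by Orbitrap Eclipse LC-MS/MS with FAIMS and quantified in FragPipe. Each cysteine's log2 competition ratio compares mean control-channel with mean compound-channel reporter intensity, control over compound. Data came from duplicate channels across three replicates, excluding cysteines quantified in only one replicate.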", "values": [{"target": "LRRC14 C221 (UniProt Q15048)", "log2 ratio of iodoacetamide-alkyne labeling": "inactive: -0.0893"}, {"target": "TSR1 C329 (UniProt Q2NL82)", "log2 ratio of iodoacetamide-alkyne labeling": "inactive: 0.425"}, {"target": "EFTUD2 C663 (UniProt Q15029)", "log2 ratio of iodoacetamide-alkyne labeling": "inactive: -0.155"}, {"target": "DECR1 C116 (UniProt Q16698)", "log2 ratio of iodoacetamide-alkyne labeling": "inactive: 0.219"}, {"target": "GEN1 C866 (UniProt Q17RS7)", "log2 ratio of iodoacetamide-alkyne labeling": "inactive: 0.785"}, {"target": "CSRP2 C167 (UniProt Q16527)", "log2 ratio of iodoacetamide-alkyne labeling": "inactive: -0.0209"}, {"target": "OCIAD2 C27 (UniProt Q56VL3)", "log2 ratio of iodoacetamide-alkyne labeling": "inactive: 0.644"}, {"target": "LLGL1 C483 (UniProt Q15334)", "log2 ratio of iodoacetamide-alkyne labeling": "inactive: 0.496"}, {"target": "LRRFIP1 C14 (UniProt Q32MZ4)", "log2 ratio of iodoacetamide-alkyne labeling": "inactive: 0.0967"}, {"target": "MED1 C800 (UniProt Q15648)", "log2 ratio of iodoacetamide-alkyne labeling": "inactive: 0.0208"}, {"target": "SAFB C404 (UniProt Q15424)", "log2 ratio of iodoacetamide-alkyne labeling": "active: 1.14"}, {"target": "DBN1 C613 (UniProt Q16643)", "log2 ratio of iodoacetamide-alkyne labeling": "inactive: 0.258"}, {"target": "UBE3C C622 (UniProt Q15386)", "log2 ratio of iodoacetamide-alkyne labeling": "inactive: 0.0907"}, {"target": "UniProt Q15149_C3299", "log2 ratio of iodoacetamide-alkyne labeling": "inactive: 0.33"}, {"target": "UBE2S C118 (UniProt Q16763)", "log2 ratio of iodoacetamide-alkyne labeling": "inactive: 0.158"}, {"target": "HSDL1 C328 (UniProt Q3SXM5)", "log2 ratio of iodoacetamide-alkyne labeling": "inactive: 0.374"}, {"target": "TRIP6 C387 (UniProt Q15654)", "log2 ratio of iodoacetamide-alkyne labeling": "inactive: 0.15"}, {"target": "LRRFIP1 C750 (UniProt Q32MZ4)", "log2 ratio of iodoacetamide-alkyne labeling": "inactive: 0.706"}, {"target": "UniProt Q15365_C355", "log2 ratio of iodoacetamide-alkyne labeling": "inactive: 0.6"}, {"target": "CCDC58 C74 (UniProt Q4VC31)", "log2 ratio of iodoacetamide-alkyne labeling": "inactive: -0.211"}, {"target": "SF3A1 C244 (UniProt Q15459)", "log2 ratio of iodoacetamide-alkyne labeling": "inactive: 0.0803"}, {"target": "FAM98B C216 (UniProt Q52LJ0)", "log2 ratio of iodoacetamide-alkyne labeling": "inactive: -0.115"}, {"target": "SEC23A C180 (UniProt Q15436)", "log2 ratio of iodoacetamide-alkyne labeling": "inactive: 0.0997"}, {"target": "PCM1 C1999 (UniProt Q15154)", "log2 ratio of iodoacetamide-alkyne labeling": "inactive: 0.275"}, {"target": "HERC1 C1941 (UniProt Q15751)", "log2 ratio of iodoacetamide-alkyne labeling": "inactive: 0.763"}, {"target": "PDS5A C92 (UniProt Q29RF7)", "log2 ratio of iodoacetamide-alkyne labeling": "inactive: -0.0722"}, {"target": "PPA1 C274 (UniProt Q15181)", "log2 ratio of iodoacetamide-alkyne labeling": "inactive: 0.425"}, {"target": "AMOT C617 (UniProt Q4VCS5)", "log2 ratio of iodoacetamide-alkyne labeling": "inactive: 0.126"}, {"target": "SUZ12 C325 (UniProt Q15022)", "log2 ratio of iodoacetamide-alkyne labeling": "active: 1.07"}, {"target": "GLYR1 C356 (UniProt Q49A26)", "log2 ratio of iodoacetamide-alkyne labeling": "inactive: -0.00279"}, {"target": "UniProt Q15286_C163", "log2 ratio of iodoacetamide-alkyne labeling": "inactive: 0.0486"}, {"target": "PDS5A C1116 (UniProt Q29RF7)", "log2 ratio of iodoacetamide-alkyne labeling": "inactive: 0.182"}, {"target": "UniProt Q15365_C54", "log2 ratio of iodoacetamide-alkyne labeling": "inactive: 0.397"}, {"target": "UniProt Q15365_C194", "log2 ratio of iodoacetamide-alkyne labeling": "active: 1.08"}, {"target": "RABEP1 C533 (UniProt Q15276)", "log2 ratio of iodoacetamide-alkyne labeling": "inactive: 0.143"}, {"target": "HNRNPUL2 C538 (UniProt Q1KMD3)", "log2 ratio of iodoacetamide-alkyne labeling": "inactive: 0.485"}, {"target": "UniProt Q49MG5_C239", "log2 ratio of iodoacetamide-alkyne labeling": "inactive: 0.191"}, {"target": "HNRNPUL2 C408 (UniProt Q1KMD3)", "log2 ratio of iodoacetamide-alkyne labeling": "inactive: 0.159"}]}]}
